Reference: PMC8564014
No constants are given. Whether binding was seen depends on the method and setting. Binding seen in cells or lysates may run through a third protein. A yes stands for co-enrichment or nearness to the bait. Other partners may have been found.

Chains of the proteins cited; added tags and fusions are not shown.
UniProt Q13114: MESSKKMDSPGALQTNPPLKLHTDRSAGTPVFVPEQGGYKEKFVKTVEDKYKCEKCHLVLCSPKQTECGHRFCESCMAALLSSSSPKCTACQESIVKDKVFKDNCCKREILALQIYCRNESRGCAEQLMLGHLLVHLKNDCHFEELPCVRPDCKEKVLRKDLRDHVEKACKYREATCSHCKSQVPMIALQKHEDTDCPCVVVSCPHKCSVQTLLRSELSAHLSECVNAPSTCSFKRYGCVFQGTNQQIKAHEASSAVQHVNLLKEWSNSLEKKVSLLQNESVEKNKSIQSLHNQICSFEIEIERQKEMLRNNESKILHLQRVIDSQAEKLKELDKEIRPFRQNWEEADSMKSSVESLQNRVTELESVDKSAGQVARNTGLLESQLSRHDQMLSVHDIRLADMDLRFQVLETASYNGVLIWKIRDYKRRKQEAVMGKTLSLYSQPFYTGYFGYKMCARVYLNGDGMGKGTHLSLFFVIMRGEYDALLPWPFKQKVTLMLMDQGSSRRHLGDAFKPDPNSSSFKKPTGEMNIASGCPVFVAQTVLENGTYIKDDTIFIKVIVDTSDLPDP
UniProt Q9BWD1: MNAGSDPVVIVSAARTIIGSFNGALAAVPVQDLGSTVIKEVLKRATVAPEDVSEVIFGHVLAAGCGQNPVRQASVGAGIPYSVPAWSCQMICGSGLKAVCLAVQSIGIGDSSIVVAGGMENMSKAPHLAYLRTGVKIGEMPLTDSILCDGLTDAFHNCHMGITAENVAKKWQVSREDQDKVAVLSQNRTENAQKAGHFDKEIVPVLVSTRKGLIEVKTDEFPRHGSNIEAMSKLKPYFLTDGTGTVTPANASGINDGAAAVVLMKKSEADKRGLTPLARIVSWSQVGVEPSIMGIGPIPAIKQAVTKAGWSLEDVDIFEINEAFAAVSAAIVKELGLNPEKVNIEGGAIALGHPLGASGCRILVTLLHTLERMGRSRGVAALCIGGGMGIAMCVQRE
UniProt Q99873: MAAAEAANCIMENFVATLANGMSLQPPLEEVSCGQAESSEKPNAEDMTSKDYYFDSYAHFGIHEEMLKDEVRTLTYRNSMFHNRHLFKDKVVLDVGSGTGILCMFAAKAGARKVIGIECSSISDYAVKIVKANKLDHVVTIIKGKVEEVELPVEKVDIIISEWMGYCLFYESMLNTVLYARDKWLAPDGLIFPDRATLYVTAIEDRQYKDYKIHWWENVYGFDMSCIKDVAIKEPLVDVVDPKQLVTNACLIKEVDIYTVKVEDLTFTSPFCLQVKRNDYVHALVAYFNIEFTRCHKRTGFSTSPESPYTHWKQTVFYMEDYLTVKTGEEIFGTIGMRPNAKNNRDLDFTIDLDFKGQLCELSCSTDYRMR
UniProt O00459: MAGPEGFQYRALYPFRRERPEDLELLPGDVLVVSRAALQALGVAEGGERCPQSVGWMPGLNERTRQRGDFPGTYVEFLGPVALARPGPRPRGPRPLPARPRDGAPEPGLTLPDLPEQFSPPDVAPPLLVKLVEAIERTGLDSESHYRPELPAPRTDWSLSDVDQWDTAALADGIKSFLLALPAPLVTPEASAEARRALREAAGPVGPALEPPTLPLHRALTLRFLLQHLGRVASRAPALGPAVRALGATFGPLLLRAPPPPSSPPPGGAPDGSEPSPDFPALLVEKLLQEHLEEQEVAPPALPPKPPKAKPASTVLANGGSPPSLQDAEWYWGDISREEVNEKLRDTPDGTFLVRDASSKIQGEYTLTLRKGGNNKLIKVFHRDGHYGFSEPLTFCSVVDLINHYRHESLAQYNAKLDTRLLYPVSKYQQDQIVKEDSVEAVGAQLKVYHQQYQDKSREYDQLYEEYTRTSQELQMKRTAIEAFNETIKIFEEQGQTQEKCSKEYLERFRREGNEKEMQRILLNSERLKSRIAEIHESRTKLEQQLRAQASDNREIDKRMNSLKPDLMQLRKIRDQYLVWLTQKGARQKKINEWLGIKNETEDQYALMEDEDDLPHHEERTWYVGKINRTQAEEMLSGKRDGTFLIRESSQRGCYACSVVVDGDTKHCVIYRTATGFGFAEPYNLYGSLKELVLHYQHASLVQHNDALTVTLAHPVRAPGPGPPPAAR
UniProt Q01518: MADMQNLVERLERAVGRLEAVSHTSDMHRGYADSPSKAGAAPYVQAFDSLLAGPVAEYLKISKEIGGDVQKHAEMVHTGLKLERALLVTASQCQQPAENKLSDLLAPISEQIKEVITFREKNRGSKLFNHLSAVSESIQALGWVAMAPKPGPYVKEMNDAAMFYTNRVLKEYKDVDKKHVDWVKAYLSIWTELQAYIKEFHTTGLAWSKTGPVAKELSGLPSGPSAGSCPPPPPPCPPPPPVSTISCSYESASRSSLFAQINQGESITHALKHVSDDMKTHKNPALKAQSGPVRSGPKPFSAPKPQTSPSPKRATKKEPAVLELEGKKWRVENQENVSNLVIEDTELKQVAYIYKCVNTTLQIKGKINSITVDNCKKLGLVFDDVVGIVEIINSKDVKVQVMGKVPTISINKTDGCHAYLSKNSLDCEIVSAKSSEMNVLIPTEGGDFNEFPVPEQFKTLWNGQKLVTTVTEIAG
UniProt O76083: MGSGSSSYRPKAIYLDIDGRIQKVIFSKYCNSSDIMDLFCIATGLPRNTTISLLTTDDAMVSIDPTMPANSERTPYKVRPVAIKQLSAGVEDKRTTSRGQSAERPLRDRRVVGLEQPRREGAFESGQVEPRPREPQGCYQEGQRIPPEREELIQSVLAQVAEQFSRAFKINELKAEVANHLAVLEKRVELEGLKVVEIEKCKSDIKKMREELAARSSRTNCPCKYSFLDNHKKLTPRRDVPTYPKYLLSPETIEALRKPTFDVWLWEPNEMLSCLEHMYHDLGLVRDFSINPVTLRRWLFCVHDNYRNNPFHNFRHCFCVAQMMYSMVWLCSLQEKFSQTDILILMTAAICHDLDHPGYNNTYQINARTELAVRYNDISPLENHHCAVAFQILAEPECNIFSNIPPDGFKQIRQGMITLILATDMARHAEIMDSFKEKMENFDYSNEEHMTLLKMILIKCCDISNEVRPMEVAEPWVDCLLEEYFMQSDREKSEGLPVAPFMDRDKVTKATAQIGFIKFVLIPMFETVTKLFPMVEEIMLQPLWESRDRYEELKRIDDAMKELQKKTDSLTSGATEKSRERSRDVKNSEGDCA
UniProt P78417: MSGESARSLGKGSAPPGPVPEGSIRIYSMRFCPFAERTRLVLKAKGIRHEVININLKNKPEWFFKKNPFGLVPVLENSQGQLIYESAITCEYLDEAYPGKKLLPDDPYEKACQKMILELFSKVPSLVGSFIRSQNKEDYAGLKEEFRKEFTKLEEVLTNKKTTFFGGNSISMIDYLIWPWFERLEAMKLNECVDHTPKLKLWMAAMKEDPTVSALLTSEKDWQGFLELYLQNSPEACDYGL
UniProt Q9ULZ3: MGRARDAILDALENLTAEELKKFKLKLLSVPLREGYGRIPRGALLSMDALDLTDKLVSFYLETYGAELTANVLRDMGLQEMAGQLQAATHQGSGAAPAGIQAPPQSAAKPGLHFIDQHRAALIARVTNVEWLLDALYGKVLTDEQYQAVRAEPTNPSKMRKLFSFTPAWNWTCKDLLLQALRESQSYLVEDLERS
UniProt P60953: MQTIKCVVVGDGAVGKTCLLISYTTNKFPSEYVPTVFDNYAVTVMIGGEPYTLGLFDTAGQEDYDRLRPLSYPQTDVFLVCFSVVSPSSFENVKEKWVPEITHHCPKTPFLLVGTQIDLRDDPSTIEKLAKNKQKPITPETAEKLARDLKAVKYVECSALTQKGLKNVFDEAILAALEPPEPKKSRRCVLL
UniProt P09211: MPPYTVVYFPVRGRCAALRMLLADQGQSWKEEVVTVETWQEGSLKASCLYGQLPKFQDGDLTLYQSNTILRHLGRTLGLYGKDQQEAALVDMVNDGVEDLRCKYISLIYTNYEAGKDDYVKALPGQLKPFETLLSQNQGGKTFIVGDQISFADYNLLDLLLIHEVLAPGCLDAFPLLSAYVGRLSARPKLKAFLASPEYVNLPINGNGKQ

biological target: TRAF3-SBP-6xHis (in transduced human MM 8226 cells) (human) (UniProt Q13114); experiment: affinity purification with mass spectrometry; mitochondria isolated from 8226 cells transduced with pUB-TRAF3-SBP-6xHis, lysed in 1% CHAPS lysis buffer; TRAF3-SBP-6xHis captured on Streptavidin-Sepharose beads, 5 washes; LC-MS/MS of gel slices; cells transduced with FLAG-TRAF3 as negative control

Substance	binding
CSNK2A2, endogenous in 8226 cells (from UniProt P19784 1-350)	binds
CKMT1A (from UniProt P12532 40-417)	binds
ACAT2 (from UniProt Q9BWD1 1-397)	binds
PRMT1 (from UniProt Q99873 1-371)	binds
GPI (from UniProt P06744 1-558)	binds
PIK3R2 (from UniProt O00459 1-728)	binds
CAP1 (from UniProt Q01518 1-475)	binds
PDE9A (from UniProt O76083 1-593)	binds

The remaining lines, values ahead:

binding	Substance
binds	GSTO1 (from UniProt P78417 1-241)
binds	PYCARD (from UniProt Q9ULZ3 1-195)
binds	CDC42 (from UniProt P60953 1-191)
binds	GSTP1 (from UniProt P09211 1-210)
